Experimental data from the supplement of paper PMC11060735.
± gives the standard deviation of the averaged measurements. In all, about 1,800 compounds were measured (“GFP- (p16Ink4a-) cell count relative to negative-control wells”: median about 0.99, lowest 2% from about 0.5 on). Some of the results follow.

These compounds were tested on mouse p16Ink4a+/- lung fibroblasts (INKBRITE, bleomycin-injured) (assay: GFP- (p16Ink4a-) cell count relative to negative-control wells (fold of vehicle); higher = more p16Ink4a- cells surviving). Conditions: 1 µM; 3 days.

Row | Structure (SMILES) | GFP-
1 | CC(C(=O)O)c1ccc2c(c1)CC(=O)c1ccccc1S2 (stereo unspecified) [Zaltoprofen] | 1.01
2 | c1ccc2c(Oc3nc(Nc4ccc(N5CCOCC5)cc4)c4ncn(C5CCCCC5)c4n3)cccc2c1 [Purmorphamine] | 1.22
3 | COC(=O)C1=CO[C@@H](O[C@@H]2O[C@H](CO)[C@@H](O)[C@H](O)[C@H]2O)[C@@H]2C(CO)=CC[C@H]12 [Geniposide] | 0.964
4 | CC(c1cc2ccccc2s1)N(O)C(N)=O (stereo unspecified) [Zileuton] | 1.16
5 | COc1ccc(Cl)cc1NC(=O)Nc1cc(C)nc2ccccc12 | 0.935
6 | C=C[C@H]1CN2CC[C@H]1C[C@H]2[C@H](O)c1ccnc2ccc(OC)cc12 [Quinine] | 1.05
7 | C[C@@H]1[C@H](O)[C@@H](C)/C=C/C=C/C=C/C=C/C=C/C=C/C=C/[C@H](O[C@@H]2O[C@H](C)[C@@H](O)[C@H](N)[C@@H]2O)C[C@@H]2O[C@](O)(C[C@@H](O)C[C@@H](O)[C@H](O)CC[C@@H](O)C[C@@H](O)CC(=O)O[C@H]1C)C[C@H](O)[C@H]2C(=O)O [Amphotericin B] | 0.996
8 | O=c1c(O)c(-c2ccc(O)cc2O)oc2cc(O)cc(O)c12 [Morin] | 0.998
9 | C[C@@H]1C/C=C/C=C/C=C/C=C/C(O[C@@H]2O[C@H](C)[C@@H](O)[C@H](N)[C@@H]2O)C[C@@H]2O[C@](O)(C[C@@H](O)C[C@H]3O[C@@H]3/C=C/C(=O)O1)C[C@H](O)[C@H]2C(=O)O (stereo partly specified) [Natamycin] | 0.978
10 | CCN(CC)CCCC(C)Nc1c2ccc(Cl)cc2nc2ccc(OC)cc12 (stereo unspecified) [Quinacrine] | 0.987
11 | O=C(O)CCc1ccc(NCc2cccc(Oc3ccccc3)c2)cc1 | 0.98
12 | O=C1CCc2cc(OCCCCc3nnnn3C3CCCCC3)ccc2N1 [Cilostazol] | 1.09
13 | N#Cc1ccc2[nH]cc(CCCCN3CCN(c4ccc5oc(C(N)=O)cc5c4)CC3)c2c1 [Vilazodone] | 1.07
14 | CCCCC1=NC2(CCCC2)C(=O)N1Cc1ccc(-c2ccccc2-c2nn[nH]n2)cc1 [Irbesartan] | 0.918
15 | CN1CCC(=C2c3ccccc3CCc3cccnc32)CC1 [Azatadine] | 0.964
16 | COc1ccc([C@@H]2CC(=O)c3c(O)cc(O)cc3O2)cc1O [Hesperetin] | 0.837
17 | CC(C)=CCC[C@](C)(O[C@@H]1O[C@H](CO[C@@H]2OC[C@@H](O)[C@H](O)[C@H]2O)[C@@H](O)[C@H](O)[C@H]1O)[C@H]1CC[C@]2(C)[C@@H]1[C@H](O)C[C@@H]1[C@@]3(C)CC[C@H](O[C@@H]4O[C@H](CO)[C@@H](O)[C@H](O)[C@H]4O)C(C)(C)[C@@H]3CC[C@]12C [Gynostemma Extract] | 1.07
18 | C[C@H](NC(=O)/C(C#N)=C/c1cccc(Br)n1)c1ccccc1 | 0.999 ± 0.049
19 | COc1cc(/C=C/C(=O)O)ccc1O [Ferulic Acid] | 1.01
20 | O=C(O[C@@H]1Cc2c(O)cc(O)cc2O[C@@H]1c1cc(O)c(O)c(O)c1)c1cc(O)c(O)c(O)c1 [Epigallocatechin-3-monogallate] | 1.06
21 | O=C(O)C1=CC(O)C(O)[C@H](O)C1 (stereo partly specified) [Shikimic Acid] | 1.31
22 | NC[C@H]1CC[C@@H](C(=O)O)CC1 [Tranexamic Acid] | 0.988
23 | O=C(O)CCc1nc(-c2ccccc2)c(-c2ccccc2)o1 [Oxaprozin] | 1.04

Row | Structure (SMILES) | GFP-
24 | CNCc1ccc(-c2cc(-c3nc(-c4ccc(S(=O)(=O)C(C)C)cc4)cnc3N)on2)cc1 | 1.03
25 | CCOC(=O)c1ccc(N)cc1 [Benzocaine] | 0.902
26 | NC(=O)c1cccc(-c2cccc(OC(=O)NC3CCCCC3)c2)c1 | 1.08
27 | CCOC(=O)[C@H](CCc1ccccc1)N[C@H]1CCCN2CCC[C@@H](C(=O)O)N2C1=O [Cilazapril] | 1.04
28 | CCOc1ccc2nc3cc(N)ccc3c(N)c2c1 [Ethacridine Lactate] | 0.84
29 | CC1(C)CCC(c2ccc(Cl)cc2)=C(CN2CCN(c3ccc(C(=O)NS(=O)(=O)c4ccc(N[C@H](CCN5CCOCC5)CSc5ccccc5)c(S(=O)(=O)C(F)(F)F)c4)cc3)CC2)C1 [Navitoclax] | 0.944
30 | CC(C)c1nc(CN(C)C(=O)N[C@H](C(=O)N[C@@H](Cc2ccccc2)C[C@H](O)[C@H](Cc2ccccc2)NC(=O)OCc2cncs2)C(C)C)cs1 [Ritonavir] | 0.998
31 | C[N+](C)(C)CCOC(=O)CCC(=O)OCC[N+](C)(C)C [Succinylcholine] | 0.884
32 | COc1cc2ncc(-c3ccccc3)nc2cc1OC [Tyrphostin AG] | 0.792
33 | Cc1c(Cl)cccc1Nc1ccccc1C(=O)O [Tolfenamic Acid] | 1.16
34 | C/C(=C\c1ccc(C(=O)O)cc1)c1ccc2c(c1)C(C)(C)CCC2(C)C | 1.02
35 | CCO/C(O)=C1\C(C)=NC(C)=C(C(=O)OC)C1c1cccc(Cl)c1Cl (stereo unspecified) [Felodipine] | 0.531
36 | C[C@@H]1O[C@@H](OC[C@H]2O[C@@H](Oc3c(-c4ccc(O)c(O)c4)oc4cc(O)cc(O)c4c3=O)[C@H](O)[C@@H](O)[C@@H]2O)[C@H](O)[C@H](O)[C@H]1O [Rutin] | 1.05
37 | Cc1cc(=O)oc2cc(O)ccc12 [7-hydroxy-4-methyl-2H-chromen-2-one] | 1.08
38 | CCc1cccc2c3c([nH]c12)[C@@](CC)(CC(=O)O)OCC3 [Etodolac] | 1.06
39 | OCCn1cc(-c2cnc3nnn(Cc4ccc5ncccc5c4)c3n2)cn1 | 0.998
40 | Nc1ncnc2c1ncn2[C@@H]1O[C@H](CO)[C@@H](O)[C@@H]1O [Vidarabine] | 1
41 | CCC1=C(C)CN(C(=O)NCCc2ccc(S(=O)(=O)NC(=O)N[C@H]3CC[C@H](C)CC3)cc2)C1=O [Glimepiride] | 1.36
42 | COc1cc(NC(C)CCCN)c2ncccc2c1 (stereo unspecified) [Primaquine] | 0.781
43 | CCOc1ccc(NC(C)=O)cc1 [Phenacetin] | 1.08
44 | CCN(CC)CCOc1ccc(/C(=C(\Cl)c2ccccc2)c2ccccc2)cc1 [Clomiphene] | 1.16
45 | O=c1sn(-c2cccc3ccccc23)c(=O)n1Cc1ccccc1 [Tideglusib] | 0.92
46 | N#Cc1c(O)nc2scc(-c3ccc(-c4ccccc4O)cc3)c2c1O | 1

An excerpt from above in order of count of non-hydrogen atoms, ascending:
Row | Structure (SMILES) | GFP-
25 | CCOC(=O)c1ccc(N)cc1 [Benzocaine] | 0.902
26 | NC(=O)c1cccc(-c2cccc(OC(=O)NC3CCCCC3)c2)c1 | 1.08
36 | C[C@@H]1O[C@@H](OC[C@H]2O[C@@H](Oc3c(-c4ccc(O)c(O)c4)oc4cc(O)cc(O)c4c3=O)[C@H](O)[C@@H](O)[C@@H]2O)[C@H](O)[C@H](O)[C@H]1O [Rutin] | 1.05
